Measurements from “University of Dundee, Small-Polar-MMV Screening Library” (2021), ChEMBL document CHEMBL3988442.

By UniProt entry, the sequences of proteins in these tests, tags left out.
UniProt E9BF75, entry or part of it: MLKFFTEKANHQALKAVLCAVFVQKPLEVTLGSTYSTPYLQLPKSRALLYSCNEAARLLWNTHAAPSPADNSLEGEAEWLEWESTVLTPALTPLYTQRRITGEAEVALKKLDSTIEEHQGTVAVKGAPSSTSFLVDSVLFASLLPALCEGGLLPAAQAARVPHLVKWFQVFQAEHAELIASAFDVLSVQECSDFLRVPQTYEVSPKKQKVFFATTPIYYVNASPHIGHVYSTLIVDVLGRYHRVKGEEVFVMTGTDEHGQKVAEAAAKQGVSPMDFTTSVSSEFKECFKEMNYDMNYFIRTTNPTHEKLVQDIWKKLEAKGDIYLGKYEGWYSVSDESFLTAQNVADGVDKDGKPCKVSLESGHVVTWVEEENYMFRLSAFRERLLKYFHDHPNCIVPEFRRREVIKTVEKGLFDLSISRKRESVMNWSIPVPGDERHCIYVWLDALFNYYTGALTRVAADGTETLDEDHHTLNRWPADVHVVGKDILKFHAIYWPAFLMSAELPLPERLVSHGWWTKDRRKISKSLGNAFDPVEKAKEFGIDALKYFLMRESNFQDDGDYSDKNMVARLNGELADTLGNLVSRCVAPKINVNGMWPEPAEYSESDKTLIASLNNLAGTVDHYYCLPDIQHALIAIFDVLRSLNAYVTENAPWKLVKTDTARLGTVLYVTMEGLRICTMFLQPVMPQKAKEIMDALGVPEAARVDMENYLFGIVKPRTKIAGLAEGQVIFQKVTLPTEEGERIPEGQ

Mtb heat-shock: 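Assay on Mycobacterium tuberculosis, filed only as a heat shock assay from Cornell; the read-out is not stated. The concentration is filed as 10 mM, unlikely as a test dose, so the dose is not known. Direction is inferred from retests: higher values go with stronger inhibition. Of about 69,000 compounds tested this way, about 930 (1.4%) reached 50% or more in at least one test.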
LdMetRS: 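Methionyl-tRNA synthetase (putative), Leishmania donovani (UniProt E9BF75). Primary screen of methionyl-tRNA synthetase; the read-out is not stated. The test concentration is not given. Values are per cent inhibition. Of about 68,000 compounds tested this way, about 24 (0.035%) reached 50% or more in at least one test.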

All values are in %. The record does not define 0% and 100%; most values in the screen are far below 50% and negative numbers occur (in some assays of this library far below -100). This is an unselected part of the compounds tested. A dash means the value is not listed here; it may have been measured.

| structure | Mtb heat-shock | LdMetRS |
|---|---|---|
| `Cc1ccccc1CCC(=O)N1CCc2ncnc(NCCO)c2CC1` | 1.035 | 13.07 |
| `COCCCN1C(=O)CC[C@H]2CN(c3ccnc4ccccc34)CC[C@H]21` | - | 10.05 |
| `Cc1cnn(CC2CN(CCCS(C)(=O)=O)CCO2)c1` (configuration not stated) | 7.266 | 17.6 |
| `[H][C@@]12OCCN(C(=O)c3ccc(C)nc3)[C@@]1([H])CC[C@H]2OCCN(C)C` | -25.67 | - |
| `CCC(=O)N1CCC2(CC1)CNC(=O)c1cc(C)ccc1O2` | -0.6259 | 13.59 |
| `Cc1n[nH]c(C)c1CCCN(C)Cc1c[nH]nc1-c1ccc(F)cc1` | 0.598 | 7.888 |
| `CCc1noc(C(C)N2CCN(Cc3nc(C)c(C)o3)CC2)n1` (configuration not stated) | -1.72 | -2.041 |
| `CN(C)C(=O)Cn1cc(C(=O)NCCc2ccc(Cl)cc2Cl)nn1` | 0.3465 | -19.89 |
| `O=C(COC1CCCC1)N1C[C@@H]2COC[C@]2(COc2cccnc2)C1` | - | 15.5 |
| `COc1cc(NCc2c(C)noc2C)c(C(=O)N(C)C)cc1OC` | 3.74 | 0.7752 |
| `[H][C@@]12CS(=O)(=O)C[C@]1([H])N(S(=O)(=O)c1cccc(OC)c1)CCN2C` | -35.41 | - |
| `COCC(=O)N1Cc2cn(C)nc2C(COc2cccnc2)C1` (configuration not stated) | 8.339 | 2.941 |
| `CC(=O)N[C@@H](CC(C)C)C(=O)N1CCC(n2cc(CC(C)C)nn2)CC1` | -5.073 | 7.532 |
| `CC(c1nncn1C)n1cc(-c2cc(CN3CCCC3)cs2)nn1` (configuration not stated) | -25.19 | 13.64 |
| `COc1cccc(CN2CCN3C(=O)NC[C@H]3C2)n1` | - | 7.492 |
| `O=C(Nc1ccc(F)cc1)C1CNCCN1C(=O)CC1CCCCC1` (configuration not stated) | 2.279 | 1.031 |
| `O=C1NC(c2ccccc2)=N[C@@]12CC[C@@H]1CN(Cc3ccccc3)C[C@@H]12` | - | 12.13 |
| `CCc1[nH]c2c(CNc3cnccn3)cc(F)cc2c1C` | 27.04 | 12.28 |
| `CS(=O)(=O)N1CCC2(CC1)c1ccccc1[C@@H](N1CCSCC1)[C@@H]2O` | 2.161 | 8.974 |
| `Cc1cnc(C)c(N2CCN(CC3CCCO3)CC2)n1` (configuration not stated) | 1.208 | 10.21 |
| `CC(=O)N1CCc2[nH]c(=O)ccc2C1` | 7.276 | 12.71 |
| `O=C(C1CCCN(CCc2ccc3c(c2)CCO3)C1)N1CCCC1` (configuration not stated) | -22.68 | 3.715 |
| `COCC1CC2(CCN(Cc3nccn3C)CC2)CN1c1ncccn1` (configuration not stated) | - | 14.07 |
| `Cc1ccc(OCCNC(=O)C(C)n2cncn2)cc1` (configuration not stated) | 3.932 | 0.4695 |
| `COC(=O)[C@H](CSC)Nc1nc(C2CCCC2)nc2c1cnn2C` | -0.475 | 19.22 |
| `CC(C)c1nc(-c2ccc(=O)[nH]n2)n(-c2ccc3c(c2)OCO3)n1` | -6.568 | 16.45 |
| `Cc1nc(CN(C)C2CCN(Cc3cnc(C)s3)C2)no1` (configuration not stated) | 4.626 | 25 |
| `COc1ccccc1-c1nc(C(=O)N(C)C)n2ccncc12` | -23.98 | 10.86 |
| `COc1ccc2c(c1)C1(CCNCC1)CC2NC1CC1` (configuration not stated) | - | 1.039 |
| `COCCOCC(=O)NCc1ccc(N(C)C)nc1` | 0.4876 | -0.361 |
| `N#Cc1cccc(CN2C[C@@H](F)[C@@H](OCc3nc4ccccc4[nH]3)C2)c1` | -22.75 | 15.04 |
| `Cc1nc(N2CCN(C(=O)c3ccco3)CC2)c2c(n1)c(C)nn2C` | -0.2757 | 26.88 |
| `[H][C@]12CC[C@]([H])(CN(C(=O)c3cccnc3)C1)N(Cc1cc(C)ccc1C)C2` | 0.3198 | - |
| `O=C(c1ccc(-n2ccnc2)nn1)N1CCCC1CCc1ccccc1` (configuration not stated) | -2.911 | 7.652 |
| `CCCNC(=O)C1CCN(Cc2csc(CC)n2)CC1` | -11.71 | 28.45 |
| `CNC(=O)[C@@]12CCO[C@@H]1CCN(S(=O)(=O)c1ccccc1F)C2` | - | 11.54 |
| `[H][C@@]12CN(Cc3cccc(OC4CCCC4)c3)C[C@]1(C(=O)O)CNC2=O` | 9.978 | - |
| `CCOCC(O)CN1CCN(C(=O)c2ccnc(N(C)C)c2)CC1` (configuration not stated) | 5.24 | 7.609 |
| `COc1cccc2ccc(CN3CCN(c4cccnc4)CC3)nc12` | -11.07 | 20.62 |
| `CC(=O)c1ccn(CC(=O)Nc2nn(CC3CC3)c3ccccc23)n1` | 15.45 | 10.53 |
| `COCC1CN(C(=O)Cc2cccc(F)c2)Cc2ccnn2C1` (configuration not stated) | - | -9.841 |
| `Cc1nnnn1CCC(=O)N1CCC2(CCC(=O)N(CC3CC3)C2)CC1` | 0.8505 | -3.725 |
| `Cc1noc(C)c1CN1CCn2nc(CCC(=O)N3CCCC3)cc2C1` | -1.455 | 6.812 |
| `O=C(Nc1ccc(F)cc1)C1CCN(Cc2noc(C3CC3)n2)CC1` | 0.5457 | 24.73 |
| `Cc1cc(C[C@@H]2CCC[C@H]2NCc2cccc(F)c2F)on1.O=C(O)CC(O)(CC(=O)O)C(=O)O` | -4.007 | - |
| `CCC(CC)(CNC(=O)c1cccn1Cc1cccnc1)N(C)C` | 6.87 | 8.6 |
| `CC(CCN1CCCn2nc(CNS(C)(=O)=O)cc2C1)c1ccccc1` (configuration not stated) | -6.825 | -2.198 |
| `COc1ccc(C2=CCN(C(=O)CN(C)Cc3ccco3)CC2)cc1` | -6.927 | 23.38 |
| `O=C(O)C(F)(F)F.O=C(O)C(F)(F)F.[H][C@@]12COC[C@@H](CC(=O)NCc3cccnc3)[C@]1([H])CN(C1CCCC1)C2` | 13.06 | - |
| `O=C(c1cccc(NCCOc2ccc(F)cc2)c1)N1CCOCC1` | -8.948 | 6.812 |
| `O=c1c2cccc(C(F)(F)F)c2ncn1C1CCNC1` (configuration not stated) | -7.975 | 5.694 |
| `CC(C)NC(=O)NCc1ccc(C(=O)NC(C)Cn2cccn2)cc1` (configuration not stated) | -5.294 | 20.44 |
| `CCCOc1cc(CNC(=O)Nc2cccnc2N2CCCC2)ccn1` | 4.945 | 5.882 |
| `CCCC(=O)N(C)Cc1nc(N2CCCC2)ncc1-c1ccncc1.Cl` | 23.05 | - |
| `CNC(=O)[C@@H](c1ccccc1)N1CCC[C@H]1C(=O)NC1CCCCC1` | - | 9.341 |
| `Cc1c[nH]nc1C1CCN(C(=O)CC2CCCC2)C1` (configuration not stated) | 5.208 | 24.68 |
| `CCn1ncc2c1CN(C(=O)c1cc(C)oc1C)CC2COC` (configuration not stated) | - | 2.439 |
| `COc1ccc(NC(=O)CCC2CCCN(Cc3ncon3)C2)cc1Cl` (configuration not stated) | 2.301 | 17.56 |
| `COC(=O)C1CCN(C(=O)Cn2ccc(-c3ccc(F)cc3)n2)CC1` | -5.956 | 15.54 |
| `Cc1nccc(NCc2cncc3c2CCN(CC2CCOC2)C3)n1` (configuration not stated) | - | 16.54 |
| `Cc1cn2c(n1)CCC(NC(=O)c1ccc(CS(C)(=O)=O)cc1)C2` (configuration not stated) | -4.052 | 17.35 |
| `c1ccc(CCN2CCOC(CNc3cccnn3)C2)nc1` (configuration not stated) | 0.7554 | 17.61 |
| `O=C(CCn1ccccc1=O)Nc1ccc(F)c(Cl)c1` | 2.794 | 9.294 |
| `CN(C)CCOCC1CN(C(=O)c2cscn2)Cc2ccnn2C1` (configuration not stated) | -4.288 | 9.63 |
| `CCC(C)CS(=O)(=O)NCCc1csc(N2CCCC2)n1` (configuration not stated) | -2.509 | 3.562 |
| `O=C(NCC1CC1)[C@H]1CC[C@@H]2[C@@H](CCN2Cc2ccoc2)O1` | - | 10.78 |
| `CCCN1CCC(NC(=O)c2csc(C)c2-c2ccc(C)cc2)CC1` | 9.634 | 16.57 |
| `Cn1nccc1C(=O)N1CCC(n2cc(-c3ccsc3)nn2)CC1` | -18.3 | 9.384 |
| `COC[C@H]1CCC[C@]12CN(CCc1ccccc1)CCO2.O=C(O)C(F)(F)F` | -5.013 | - |
| `O[C@@H]1CCN(CC2CCOC2)[C@H]1Cc1cccnc1` (some centres not stated) | - | 15.94 |
| `CCOC(C)c1noc(CN2CCN(c3ccncc3)CC2)n1` (configuration not stated) | -2.929 | 19.93 |
| `OCc1ccc(Cl)c(NCc2cccnc2)c1` | -27.68 | 1.408 |
| `COc1cc(C2C3=C(COC3=O)Nc3[nH]nc(C)c32)cc(Br)c1O` (configuration not stated) | 26.88 | 9.091 |

The last 6 entries again:

* Cn1nccc1C(=O)N1CCC(n2cc(-c3ccsc3)nn2)CC1 | Mtb heat-shock: -18.3%; LdMetRS: 9.384%
* COC[C@H]1CCC[C@]12CN(CCc1ccccc1)CCO2.O=C(O)C(F)(F)F | Mtb heat-shock: -5.013%
* O[C@@H]1CCN(CC2CCOC2)[C@H]1Cc1cccnc1 (some centres not stated) | LdMetRS: 15.94%
* CCOC(C)c1noc(CN2CCN(c3ccncc3)CC2)n1 (configuration not stated) | Mtb heat-shock: -2.929%; LdMetRS: 19.93%
* OCc1ccc(Cl)c(NCc2cccnc2)c1 | Mtb heat-shock: -27.68%; LdMetRS: 1.408%
* COc1cc(C2C3=C(COC3=O)Nc3[nH]nc(C)c32)cc(Br)c1O (configuration not stated) | Mtb heat-shock: 26.88%; LdMetRS: 9.091%